# Measurements: patent US8039456B2, “Method of stimulating the motility of the gastrointestinal system using ipamorelin” (Helsinn Therapeutics (U.S.), Inc., priority 2004, dated 2011)
# System: morphine-induced slowing of gastric emptying
# Conditions: morphine 0.05 mg/kg IV, healthy male volunteers
compound,measurement,value
CN1CC[C@]23c4c5ccc(O)c4O[C@H]2[C@@H](O)C=C[C@H]3[C@H]1C5 [morphine],gastric emptying as determined by plasma acetaminophen levels,delayed gastric emptying
